Assay results: PubChem BioAssay AID504467 (National Center for Advancing Translational Sciences (NCATS), 2011)
Screen size: about 330,000 compounds; about 7,700 (2.3%) were called active. Inconclusive means that the source gave no clear call. Such entries were picked first, then a sample of the others. Calls come from the whole dose curve; as a rule, active = well fitted inhibition curve with a large enough effect; inconclusive = small, poorly fitted or top-dose-only effect, or effect the other way; inactive = flat fitted curve, though single readings scatter. Potencies of inconclusive entries are doubtful fits and often do not repeat.

test: qHTS screen for small molecules that inhibit ELG1-dependent DNA repair in human embryonic kidney (HEK293T) cells expressing luciferase-tagged ELG1; conditions: HEK293T ELG1-luciferase reporter, luminescence, 16 h, DNA damage induced by 5-fluorouridine; activity change, negative = inhibition: at 46.1 µM (top of the series); note: nearly all actives have a fitted effect of over 55% in size
In short: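 Step one: seed 2,000 cells per well. Step two: pin-transfer compound or DMSO alongside 5-fluorouridine. Step three: incubate 16 hr, 37 °C, 5% CO2. Step four: add ONE-Glo, wait 30 min, read luminescence.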
% is set by controls: 0 for no effect and ±100 for the full control effect; potency is the fitted concentration of half-maximal effect.

Row | SMILES | Potency | activity change, negative = inhibition
1 | O=C(CSc1cccc[n+]1[O-])c1cc(Cl)ccc1Cl | inconclusive: 18.3 µM [activator, single point] | –
2 | CCOC(=O)c1cccc(NC(=O)C2(S(=O)(=O)c3ccc(Cl)cc3)CC2)c1 | inconclusive: 29.1 µM [inhibitor, single point] | –
3 | CC(C)c1ccc2[nH]c3c(c2c1)CCC/C3=N\NC(=O)c1ccncc1 | active: 18.3 µM | –
4 | O=C(O)c1ccc(N/N=C/c2ccncc2)cc1 | inconclusive: 4.61 µM [activator, single point] | –
5 | COc1ccc(-n2cc(CNCCc3ncc(C)[nH]3)c(-c3ccccc3Cl)n2)cc1 | inconclusive: 2.59 µM [inhibitor, full curve] | –
6 | CCC(CC)NC(=O)c1oc2ccccc2c1COc1ccccc1 | inconclusive: 18.4 µM [inhibitor, single point] | –
7 | Cc1ccc2c(c1)COc1c3ccc(C(=O)NCCO)cc3nn1-2 | inconclusive: 6.51 µM [activator, partial curve] | –
8 | CS(=O)(=O)N(CC(=O)NCc1ccc(Cl)cc1)C1CCCCC1 | inconclusive: 2.06 µM [inhibitor, full curve, poor fit] | –
9 | Cc1cccc(N2CCN(S(=O)(=O)c3ccc4c(c3)CCCN4C(=O)C3CCC3)CC2C)c1 (stereo not given) | inconclusive: 29.1 µM [inhibitor, single point] | –
10 | O=C(NCC1CCCN(C(=O)CN2CCCCC2)C1)c1ccccc1Cl (stereo not given) | inconclusive: 23.1 µM [activator, single point] | –
11 | Cc1cc(NC(=O)CSc2nnc(C3COc4ccccc4O3)n2N)no1 (stereo not given) | inconclusive: 1.64 µM [inhibitor, partial curve] | –
12 | O=C(COC(=O)Cn1cnc2ccccc21)Nc1cccc(S(=O)(=O)N2CCOCC2)c1 | – | inactive: -0.665%
13 | CCCCn1c(=O)[nH]c(=O)c2c1nc(Cn1ncc(Cl)c(Cl)c1=O)n2CCC | active: 23.1 µM | –
14 | CCC(=O)Nc1cccc(C(=O)N(Cc2ccccc2)Cc2ccccc2)c1 | inconclusive: 23.1 µM [inhibitor, partial curve, poor fit] | –
15 | c1ccc(-c2ccccc2OCCCN2CCCCCC2)cc1 | inconclusive: 23.1 µM [inhibitor, single point] | –
16 | C=CCNc1nc(-c2ccc([N+](=O)[O-])cc2)cs1 | inconclusive: 9.2 µM [activator, partial curve] | –
17 | CCOC(=O)c1[nH]c2ccc(F)cc2c1NC(=O)c1cc(OC)c(OC)c(OC)c1 | active: 7.31 µM | –
18 | COc1ccc(C(=O)NC2CCN(Cc3ccccc3)C2)cc1S(=O)(=O)N1CCOCC1 (stereo not given) | inconclusive: 20.6 µM [activator, single point] | –
19 | CN(Cc1cccc(-n2cccn2)c1)C(=O)CCc1nnc(C2CCCCC2)o1 | inconclusive: 11.6 µM [activator, partial curve] | –
20 | CCCNC(=O)NC(=O)COC(=O)c1oc2ccc(OCC)cc2c1C | inconclusive: 29.1 µM [activator, single point] | –
21 | CCC(=O)Oc1ccc(C(=O)Nc2cccc(NC(=O)c3ccco3)c2)cc1 | – | inactive: -1.71%
22 | O=C(COc1ccccc1)Nc1ccncc1Cl | inconclusive: 14.6 µM [activator, partial curve] | –

Row | SMILES | Potency | activity change, negative = inhibition
23 | CCN1CCN(C(=O)C2CCC(CNS(=O)(=O)c3ccccc3)CC2)CC1 (stereo not given) | – | inactive: 5.82%
24 | COc1ccccc1-c1sc2ccccc2c1-c1ccc2c(c1)OCCO2 | inconclusive: 16.4 µM [activator, partial curve, poor fit] | –
25 | CC(/C=N/NC(=O)c1sc(N)nc1C)=C\c1ccccc1 | inconclusive: 4.61 µM [activator, partial curve] | –
26 | COc1ccc(N2CCN(C3CCCCC3NS(=O)(=O)c3ccc(Cl)cc3)CC2)cc1 (stereo not given) | – | inactive: -26.6%
27 | Cc1cc(=O)[nH]c(SCC(=O)Nc2ccccc2C)n1 | – | inactive: -7.25%
28 | COc1ccc2[nH]c(=O)c(CN(CC3CCCO3)C(=O)Nc3ccccc3OC)cc2c1 (stereo not given) | inconclusive: 20.6 µM [inhibitor, single point] | –
29 | CCN1C(=O)[C@H]2[C@@H](c3ccc(C)cc3)N3C(=O)N(c4ccc(C)cc4)C(=O)[C@@]3(CC)[C@H]2C1=O | inconclusive: 5.62 µM [activator, single point] | –
30 | O=C(CC1SC(=Nc2ccc(OC(F)F)cc2)N(CCN2CCOCC2)C1=O)Nc1ccc(F)cc1F (stereo not given) | inconclusive: 23.1 µM [inhibitor, partial curve] | –
31 | S=C(N/N=C/c1ccccc1Cl)Nc1ccccc1 | active: 11.2 µM | –
32 | Cc1ccc(N=C2C(=O)Nc3ccc(Br)cc32)cc1 | inconclusive: 32.6 µM [activator, partial curve, poor fit] | –
33 | Cc1ccc2cc(CN(Cc3ccc(F)cc3)Cc3nnnn3C3CCCC3)c(=O)[nH]c2c1 | inconclusive: 29.1 µM [inhibitor, single point] | –
34 | CCOc1ccc(C(=O)Nc2cc(S(=O)(=O)Nc3ccccc3Cl)ccc2N2CCOCC2)cc1 | inconclusive: 18.4 µM [inhibitor, partial curve, poor fit] | –
35 | COc1ccc(/C=N/NC(=O)Nc2nonc2N)cc1 | inconclusive: 20.6 µM [activator, partial curve] | –
36 | COCCn1c(SCC(=O)Nc2ccccc2C(F)(F)F)nc2ccccc2c1=O | inconclusive: 9.2 µM [inhibitor, partial curve] | –
37 | CC(=O)c1ccc(NC(=O)COC(=O)C2CC3C=CC2C3)cc1 (stereo not given) | inconclusive: 8.2 µM [activator, partial curve] | –
38 | COc1cccc(OC)c1OCCCCCc1c(C)n[nH]c1C | – | inactive: -13.2%
39 | CCOC(=O)N1CCC(NC(=O)CS(=O)(=O)Cc2nc(-c3cccc(OC)c3)oc2C)CC1 | inconclusive: 35.5 µM [inhibitor, single point] | –
40 | Cc1ccc(NC(=O)CSc2nnc(C3COc4ccccc4O3)o2)c(Cl)c1 (stereo not given) | – | inactive: 10.8%
41 | C=CCn1cnc2c(c1=O)c1nc3ccccc3nc1n2/N=C/c1cccc(OC)c1OC | active: 3.26 µM | –
42 | COc1ccc(NC(=O)c2noc3c2CCC3)cc1 | inconclusive: 1.64 µM [activator, full curve] | –
43 | COc1ccc(CC(=O)OCC(=O)Nc2ccc(N3CCOCC3)cc2)cc1 | inconclusive: 6.51 µM [inhibitor, single point] | –
44 | O=C(CCC(=O)N1CCN(Cc2ccccc2)CC1)Nc1nnc(C2CCCCC2)s1 | inconclusive: 5.8 µM [inhibitor, full curve, poor fit] | –

As entered above.
`Cc1ccc(NC(=O)CSc2nnc(C3COc4ccccc4O3)o2)c(Cl)c1` (stereo not given) | activity change, negative = inhibition: inactive: 10.8%
`Cc1ccc(N=C2C(=O)Nc3ccc(Br)cc32)cc1` | Potency: inconclusive: 32.6 µM [activator, partial curve, poor fit]
`COc1ccc(NC(=O)c2noc3c2CCC3)cc1` | Potency: inconclusive: 1.64 µM [activator, full curve]

(continued)

Row | SMILES | Potency | activity change, negative = inhibition
45 | COc1ccc(C(=O)NC(=S)N(C)C2CCCCC2)cc1 | inconclusive: 14.6 µM [activator, partial curve] | –
46 | COc1ccc(OC)c(S(=O)(=O)Nc2ccc3c(c2)C(=O)OC3)c1 | inconclusive: 25.9 µM [inhibitor, single point] | –
47 | O=C(COC(=O)C1CC(=O)N(Cc2ccco2)C1)c1ccc(OC(=O)c2ccccc2)cc1 (stereo not given) | inconclusive: 25.9 µM [activator, single point] | –
48 | COc1cccc(C(=O)OCC(=O)NCCc2ccccc2)c1OC | inconclusive: 20.6 µM [inhibitor, partial curve, poor fit] | –
49 | COc1ccc(/C=C(/C(=O)c2cccs2)N2C=CC=CC2=C(C#N)C#N)cc1 | inconclusive: 6.51 µM [activator, single point] | –
50 | O=C(N/N=C/c1ccc(F)cc1)c1c(O)c2ccccc2[nH]c1=O | inconclusive: 23.1 µM [activator, partial curve, poor fit] | –
51 | COc1cc2c(cc1NC(=O)CSc1ccc(C)cc1)oc1ccccc12 | inconclusive: 18.4 µM [inhibitor, partial curve, poor fit] | –
52 | Cc1ccc2[nH]c(=O)c(CN(Cc3cccs3)Cc3nnnn3Cc3ccccc3)cc2c1 | inconclusive: 29.1 µM [inhibitor, single point] | –
53 | O=C(Oc1ccccc1)Oc1ccc2c(c1)oc(=O)c1ccccc12 | inconclusive: 29.1 µM [activator, single point] | –
54 | CCNC(=O)c1ccccc1-c1nc(-c2ccccc2Cl)no1 | – | inactive: -0.757%
55 | CCN(CC)c1ccc(NC(=O)CCCOc2cccc(C)c2)cc1 | – | inactive: -23.6%
56 | O=C(CSc1ncn[nH]1)Nc1ccc(Br)cc1F | inconclusive: 16.4 µM [activator, partial curve, poor fit] | –
57 | O=C(O)CNS(=O)(=O)c1c(Cl)cccc1Cl | – | inactive: 10.2%
58 | C/C(=N\NC(=O)c1ccc(F)cc1)c1ccc(NC(=O)Cc2ccccc2)cc1 | inconclusive: 23.1 µM [activator, partial curve] | –
59 | O=C(NCCCNC(=O)c1ccc(-c2cc(Cl)ccc2Cl)o1)c1cnccn1 | inconclusive: 16.4 µM [inhibitor, partial curve, poor fit] | –
60 | O=C(Nc1ccccc1Cl)Oc1ccc(-c2ccccc2)cc1 | inconclusive: 9.2 µM [activator, partial curve, poor fit] | –
61 | Cc1nc(-c2ccc(O)c(O)c2)cs1 | inconclusive: 14.6 µM [activator, partial curve, poor fit] | –
62 | COc1cc(Cl)ccc1OCc1cc(C(=O)N(C)CCc2cnn(C)c2)no1 | inconclusive: 29.1 µM [activator, single point] | –
63 | Cc1cc2nc(/C=C/c3nc4cc(C)c(C)cc4[nH]3)[nH]c2cc1C | inconclusive: 29.1 µM [activator, single point] | –
64 | c1ccc2nc(-c3ccc(-n4ccnc4)cc3)ccc2c1 | inconclusive: 5.17 µM [activator, partial curve] | –
65 | CC(NC(=O)c1ccccc1Cl)C(=O)N1CCN(Cc2ccc3c(c2)OCO3)CC1 (stereo not given) | – | inactive: -5.06%
